{"source": "PubChem BioAssay AID1347075", "about": "(National Center for Advancing Translational Sciences (NCATS), 2019)", "note": "Hit rate of the full screen: of about 400,000 compounds, about 5,500 (1.4%) were called active. This list was built around the results that the source calls inconclusive (neither active nor inactive); the mix of calls is not that of the screen. Calls come from the whole dose curve; as a rule, active = well fitted cell-killing curve with a large enough effect; inconclusive = small, poorly fitted or top-dose-only effect, or effect the other way; inactive = flat fitted curve, though single readings scatter. Potencies beside an inconclusive call are fits to weak or partial responses and may not hold up. % is set by controls: 0 for no effect and ±100 for the full control effect; potency is the fitted concentration of half-maximal effect.", "data": [{"assay": "qHTS assay for MDR1-selective chemotherapeutics: Primary screen using the parental adenocarcinoma cell KB-3-1; note: nearly all actives have a fitted effect of over 60% in size", "conditions": "KB-3-1 viability, CellTiter-Glo ATP luminescence, 72 h; activity change, negative = cytotoxic: at 46.1 µM (top of the series)", "method_in_brief": "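Viability of parental KB-3-1 cells, measured by CellTiter-Glo luminescence, followed a 72 h incubation at 37 °C with pinned compounds in phenol-red-free DMEM containing 10% FBS.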", "values": [{"smiles": "Cc1cc2c3ccccc3[nH]c(=O)n2n1", "Potency": "inconclusive: 20.6 µM [rising, single point]"}, {"smiles": "COC(=O)[C@@]1(Cc2ccc(F)cc2)[C@H]2c3cc(C(=O)N4CCCC4)n(CCc4ccc(OC)c(Br)c4)c3C[C@H]2CN1C(=O)c1ccccc1", "Potency": "active: 25.9 µM"}, {"smiles": "CCOc1ccc(-n2nc3ccc(NC(=O)Cc4ccccc4)cc3n2)cc1", "activity change, negative = cytotoxic": "inactive: -1.13%"}, {"smiles": "COc1ccc(NC(=O)C(=O)c2cn(CC(=O)N3CCCC3)c3ccccc23)cc1", "Potency": "inconclusive: 3.26 µM [cytotoxic, partial curve, poor fit]"}, {"smiles": "COc1cc(CCNC2=CC(=O)c3ncccc3C2=O)ccc1O", "Potency": "active: 5.8 µM"}, {"smiles": "COc1cccc(/C=C2\\SC(=S)N(c3cccnc3)C2=O)c1OC", "activity change, negative = cytotoxic": "inactive: 3.73%"}, {"smiles": "Cc1cc(-c2ccc(C)c(S(=O)(=O)N3CCOc4ccc(Cl)cc43)c2)on1", "activity change, negative = cytotoxic": "inactive: 0%"}, {"smiles": "CC(C)Oc1cc(F)ccc1-c1cc(C(=O)Nc2cccc(C(F)(F)F)c2)[nH]n1", "Potency": "inconclusive: 29.1 µM [cytotoxic, single point]"}, {"smiles": "COC(=O)c1[nH]c2ccccc2c1NC(=O)C(C)N1CC(C)OC(C)C1", "note": "(centres undefined)", "activity change, negative = cytotoxic": "inactive: 23.7%"}, {"smiles": "Cc1[nH]c(C)c(S(=O)(=O)N2CCN(c3cccc(C(F)(F)F)c3)CC2)c1C(=O)N1CCCC1", "Potency": "inconclusive: 3.66 µM [cytotoxic, partial curve, poor fit]"}, {"smiles": "O=C1c2ccccc2C(c2nnnn2-c2ccc3c(c2)OCCO3)N1CCCN1CCOCC1", "note": "(centres undefined)", "Potency": "inconclusive: 0.291 µM [rising, full curve]"}, {"smiles": "Cc1nn(-c2ccccc2)c(N2CCCC2)c1/C=N/Nc1ccc(S(=O)(=O)Nc2ccccc2)cc1[N+](=O)[O-]", "Potency": "inconclusive: 29.1 µM [cytotoxic, single point]"}, {"smiles": "CN1C(=O)/C(=C\\C=C2/CCCN2C)N(C)C1=S", "activity change, negative = cytotoxic": "inactive: -4.08%"}, {"smiles": "CC(C)(C)NC(=O)C(c1ccnc2ccccc12)n1c(=O)c(-c2cc3ccccc3[nH]2)nc2ccccc21", "note": "(centres undefined)", "Potency": "inconclusive: 29.1 µM [cytotoxic, single point]"}, {"smiles": "C=CCNC(=S)N/N=C/c1ccc(-c2ccc(OC)cc2)o1", "Potency": "inconclusive: 20.6 µM [cytotoxic, partial curve]"}, {"smiles": "O=C(NCCCN1CCOCC1)c1cnn2c(-c3ccccc3)cc(-c3ccccc3)nc12", "Potency": "inconclusive: 20.6 µM [rising, partial curve]"}, {"smiles": "Nc1nc(=O)n(C2CCCO2)cc1Br", "note": "(centres undefined)", "activity change, negative = cytotoxic": "inactive: 12.2%"}, {"smiles": "CCOC(=O)c1c(NC(=O)C2c3ccccc3Oc3ccccc32)sc(C(=O)N(CC)CC)c1C", "Potency": "inconclusive: 29.1 µM [cytotoxic, single point]"}, {"smiles": "Cc1ccc(NC(=O)CCN2CCN(C/C=C/c3ccccc3)CC2)cc1C", "activity change, negative = cytotoxic": "inactive: -11.9%"}, {"smiles": "CCn1c(COc2ccccc2)nnc1SCC(=O)CC(=O)Nc1ccccc1OC", "activity change, negative = cytotoxic": "inactive: 7.75%"}, {"smiles": "Cc1ccc(NC(=O)CSc2nc3ccccc3c3nc(CCc4c(C)n[nH]c4C)nn23)cc1F", "activity change, negative = cytotoxic": "inactive: 3.19%"}, {"smiles": "O=C1C(=O)c2ccccc2C(O)=C1c1cccc([N+](=O)[O-])c1", "Potency": "inconclusive: 23.1 µM [cytotoxic, single point]"}, {"smiles": "CC1(C2CC2)NC(=O)N(CC(=O)N2CCN(c3ccccc3F)CC2)C1=O", "note": "(centres undefined)", "Potency": "inconclusive: 10.3 µM [cytotoxic, partial curve, poor fit]"}, {"smiles": "COc1ccc(-n2c(C)nc3c(cnn3-c3ccc(Cl)cc3)c2=O)cc1", "Potency": "inconclusive: 23.1 µM [cytotoxic, single point]"}, {"smiles": "CCn1nc(NC(=O)Cc2ccc(OC)cc2)c2cc3cc(C)ccc3nc21", "Potency": "inconclusive: 18.4 µM [cytotoxic, single point]"}, {"smiles": "O=C(Nc1ccc([N+](=O)[O-])cc1)NN1CCCCCC1", "Potency": "inconclusive: 20.6 µM [cytotoxic, partial curve, poor fit]"}, {"smiles": "O=C(Nc1ccc(Cl)c(C(F)(F)F)c1)[C@@H]1CC=C[C@@H]2CCN(Cc3ccccc3)C(=O)[C@@H]21", "Potency": "inconclusive: 29.1 µM [cytotoxic, single point]"}, {"smiles": "COC(=O)N/N=C/c1cn(CCOc2ccccc2)c2ccccc12", "Potency": "inconclusive: 20.6 µM [cytotoxic, single point]"}, {"smiles": "COc1ccc(C2CC(c3ccc(Br)cc3)=NN2C(=O)CSC2=NCCS2)cc1", "note": "(centres undefined)", "Potency": "inconclusive: 29.1 µM [cytotoxic, single point]"}, {"smiles": "CCN(CC)C(=O)CSc1nc2c(sc(=S)n2CC)c(=O)n1-c1ccccc1", "Potency": "inconclusive: 23.1 µM [cytotoxic, single point]"}, {"smiles": "Cc1ccc2c(c1)nnn2C1CCN(S(=O)(=O)c2ccc(C(=O)N3CC(C)CC(C)C3)cc2)CC1", "note": "(centres undefined)", "Potency": "active: 16.4 µM"}, {"smiles": "CC1CCN(C(=O)CSc2nc(=O)n3ccccc3n2)CC1", "activity change, negative = cytotoxic": "inactive: 14.1%"}, {"smiles": "Cc1cc(C(=O)COc2ccc(-c3nnco3)cc2)c(C)n1Cc1ccccc1", "Potency": "active: 16.4 µM"}, {"smiles": "Cc1c(N(C)S(=O)(=O)c2cccc(C(=O)NC(C)C)c2)c(=O)n(-c2ccccc2)n1C", "activity change, negative = cytotoxic": "inactive: 14.9%"}, {"smiles": "COc1ccc(C(=O)Nc2cc3c(cc2C(=O)c2ccccc2Cl)OCCO3)cc1", "Potency": "inconclusive: 18.4 µM [cytotoxic, single point]"}, {"smiles": "O=C(N/N=C/C(Cl)=C/c1ccc([N+](=O)[O-])cc1)C(=O)Nc1ccccc1C(=O)O", "Potency": "active: 7.31 µM"}, {"smiles": "Cc1cc(Cl)ccc1NC(=O)c1cccc(NC(=O)N2CCSc3ncccc32)c1", "activity change, negative = cytotoxic": "inactive: -27.3%"}, {"smiles": "COc1cccc(S(=O)(=O)Nc2ccc3c(c2)C(=O)N(C)C[C@H](OC)[C@H](C)CN(Cc2ccccc2F)[C@@H](C)CO3)c1", "Potency": "inconclusive: 29.1 µM [cytotoxic, single point]"}, {"smiles": "O=C(Nc1ccc(S(=O)(=O)NCC2CCCO2)cc1)c1cnccn1", "note": "(centres undefined)", "activity change, negative = cytotoxic": "inactive: -6.03%"}, {"smiles": "O=C(Cn1ccc2ccccc2c1=O)NCC(=O)Nc1ccc(F)cc1F", "Potency": "inconclusive: 29.1 µM [rising, single point]"}, {"smiles": "Cc1ccc(CCNC(=O)C2CCN(S(=O)(=O)c3ccc4nc5c(c(C(=O)O)c4c3)CCCC5)CC2)cc1", "Potency": "inconclusive: 29.1 µM [cytotoxic, single point]"}, {"smiles": "C=CCOc1nc2c(c(=O)n(C)c(=O)n2C)n1Cc1ccccc1", "Potency": "inconclusive: 29.1 µM [cytotoxic, single point]"}, {"smiles": "CC(C)CNC(=S)NC(=O)c1ccc(Cl)cc1Cl", "Potency": "inconclusive: 5.8 µM [cytotoxic, full curve, poor fit]"}, {"smiles": "CCNC(=S)Nc1ccc(N(c2ccccc2)C(C)C)cc1", "Potency": "active: 20.6 µM"}, {"smiles": "CC(C)C1C(=O)N(Cc2cn(CC3CCCCC3)nn2)CCS(=O)(=O)N1Cc1ccc(-c2ccc(Cl)cc2)cc1", "note": "(centres undefined)", "Potency": "inconclusive: 20.6 µM [cytotoxic, single point]"}, {"smiles": "Cc1cc(Cl)ccc1NC(=O)CN1C(=O)NC2(CCCC2)C1=O", "Potency": "inconclusive: 8.2 µM [rising, single point]"}, {"smiles": "N#Cc1ccccc1CN1C(=O)c2ccccc2Sc2ccc(C(=O)OCc3ccco3)cc21", "activity change, negative = cytotoxic": "inactive: 2.25%"}, {"smiles": "CCOC(=O)c1c(CNCCN(CC)CC)n(C)c2cc(Br)c(OC)cc12", "Potency": "inconclusive: 23.1 µM [cytotoxic, single point]"}, {"smiles": "CC1CN(S(=O)(=O)c2cccc(-c3csc(-c4ccccc4)n3)c2)CC(C)O1", "note": "(centres undefined)", "Potency": "inconclusive: 29.1 µM [cytotoxic, single point]"}, {"smiles": "Cc1cc(C(=O)COC(=O)c2ccco2)c(C)n1Cc1ccco1", "activity change, negative = cytotoxic": "inactive: 0%"}, {"smiles": "COc1cccc(C(c2nnnn2-c2c(C)cccc2C)N2CCN(C/C=C/c3ccccc3)CC2)c1OC", "note": "(centres undefined)", "Potency": "inconclusive: 29.1 µM [cytotoxic, single point]"}, {"smiles": "O=C(c1ccc(F)cc1)N1CCN(C2=NS(=O)(=O)c3ccccc32)CC1", "Potency": "inconclusive: 20.6 µM [cytotoxic, single point]"}, {"smiles": "CCCSc1nn2c(=O)c3ccccc3nc2s1", "activity change, negative = cytotoxic": "inactive: 3.72%"}, {"smiles": "COC(=O)C1=NN[C@H](C(=O)OC(C)(C)C)[C@H]1c1ccccc1", "activity change, negative = cytotoxic": "inconclusive: -40.7%"}, {"smiles": "COc1ccc(C(=O)/C=C/C(=O)N(CC(=O)NC2CCCCC2)Cc2ccc(F)cc2)c(O)c1", "Potency": "inconclusive: 29.1 µM [cytotoxic, single point]"}, {"smiles": "O=C(CC1SC(=Nc2cccc3ccccc23)N(Cc2ccccn2)C1=O)Nc1ccccc1Br", "note": "(centres undefined)", "Potency": "inconclusive: 32.6 µM [cytotoxic, partial curve, poor fit]"}, {"smiles": "O=C1CC(c2nc3ccccc3[nH]2)CN1c1ccccc1", "note": "(centres undefined)", "Potency": "inconclusive: 18.4 µM [rising, partial curve]"}, {"smiles": "COc1ccc(C(=O)NC2CCCc3c2cnn3-c2cccc(C)c2C)o1", "note": "(centres undefined)", "Potency": "inconclusive: 6.51 µM [cytotoxic, full curve]"}, {"smiles": "Cc1ccccc1-c1csc(C(O)c2ccccc2)n1", "note": "(centres undefined)", "activity change, negative = cytotoxic": "inactive: -0.653%"}, {"smiles": "Cc1cccc(C(=O)NC(=S)N2CCN(C(=S)NC(=O)c3cccc(C)c3)CC2)c1", "activity change, negative = cytotoxic": "inactive: 3.05%"}, {"smiles": "NNc1nccc(Nc2ccccc2C(=O)O)n1", "activity change, negative = cytotoxic": "inactive: 10.8%"}, {"smiles": "Cc1ccc(N2CCN(C(=O)C3CCN(S(=O)(=O)c4ccc5c(c4)oc(=O)n5C)CC3)CC2C)cc1", "note": "(centres undefined)", "activity change, negative = cytotoxic": "inactive: -8.78%"}, {"smiles": "Cc1ccc(OCC(=O)NC2CCCc3ccccc32)c(C)c1", "note": "(centres undefined)", "activity change, negative = cytotoxic": "inactive: 14.4%"}, {"smiles": "CCOc1ccccc1NC(=O)c1cnccn1", "activity change, negative = cytotoxic": "inactive: -2.82%"}, {"smiles": "Cc1cc(NC(=O)c2cc(-c3cccc(Cl)c3)on2)n(-c2ccccc2)n1", "activity change, negative = cytotoxic": "inactive: -0.336%"}, {"smiles": "COc1ccc(-c2noc(-c3ccc(NCc4cccnc4)c([N+](=O)[O-])c3)n2)cc1OC", "activity change, negative = cytotoxic": "inactive: 9.25%"}, {"smiles": "COc1ccc(NC(=O)c2csc3c2CCCCC3)c(OC)c1", "Potency": "inconclusive: 2.31 µM [rising, partial curve, poor fit]"}, {"smiles": "CC(=O)c1sc2c(c1OC(=O)c1ccc(Cl)cc1Cl)c(=O)n(-c1ccccc1)c(=S)n2-c1ccccc1", "Potency": "inconclusive: 29.1 µM [cytotoxic, single point]"}, {"smiles": "O=c1cc(CN2CCN(c3ccccc3)CC2)c2cc(O)c(-c3ccccc3)cc2o1", "Potency": "inconclusive: 25.9 µM [cytotoxic, single point]"}]}]}
